From article doi:10.1101/2022.10.10.511681

Molecular target: T1, full length PER2 (LTE cell-free expressed, eGFP or mCherry tagged) (human) (UniProt O15055)
T1 sequence: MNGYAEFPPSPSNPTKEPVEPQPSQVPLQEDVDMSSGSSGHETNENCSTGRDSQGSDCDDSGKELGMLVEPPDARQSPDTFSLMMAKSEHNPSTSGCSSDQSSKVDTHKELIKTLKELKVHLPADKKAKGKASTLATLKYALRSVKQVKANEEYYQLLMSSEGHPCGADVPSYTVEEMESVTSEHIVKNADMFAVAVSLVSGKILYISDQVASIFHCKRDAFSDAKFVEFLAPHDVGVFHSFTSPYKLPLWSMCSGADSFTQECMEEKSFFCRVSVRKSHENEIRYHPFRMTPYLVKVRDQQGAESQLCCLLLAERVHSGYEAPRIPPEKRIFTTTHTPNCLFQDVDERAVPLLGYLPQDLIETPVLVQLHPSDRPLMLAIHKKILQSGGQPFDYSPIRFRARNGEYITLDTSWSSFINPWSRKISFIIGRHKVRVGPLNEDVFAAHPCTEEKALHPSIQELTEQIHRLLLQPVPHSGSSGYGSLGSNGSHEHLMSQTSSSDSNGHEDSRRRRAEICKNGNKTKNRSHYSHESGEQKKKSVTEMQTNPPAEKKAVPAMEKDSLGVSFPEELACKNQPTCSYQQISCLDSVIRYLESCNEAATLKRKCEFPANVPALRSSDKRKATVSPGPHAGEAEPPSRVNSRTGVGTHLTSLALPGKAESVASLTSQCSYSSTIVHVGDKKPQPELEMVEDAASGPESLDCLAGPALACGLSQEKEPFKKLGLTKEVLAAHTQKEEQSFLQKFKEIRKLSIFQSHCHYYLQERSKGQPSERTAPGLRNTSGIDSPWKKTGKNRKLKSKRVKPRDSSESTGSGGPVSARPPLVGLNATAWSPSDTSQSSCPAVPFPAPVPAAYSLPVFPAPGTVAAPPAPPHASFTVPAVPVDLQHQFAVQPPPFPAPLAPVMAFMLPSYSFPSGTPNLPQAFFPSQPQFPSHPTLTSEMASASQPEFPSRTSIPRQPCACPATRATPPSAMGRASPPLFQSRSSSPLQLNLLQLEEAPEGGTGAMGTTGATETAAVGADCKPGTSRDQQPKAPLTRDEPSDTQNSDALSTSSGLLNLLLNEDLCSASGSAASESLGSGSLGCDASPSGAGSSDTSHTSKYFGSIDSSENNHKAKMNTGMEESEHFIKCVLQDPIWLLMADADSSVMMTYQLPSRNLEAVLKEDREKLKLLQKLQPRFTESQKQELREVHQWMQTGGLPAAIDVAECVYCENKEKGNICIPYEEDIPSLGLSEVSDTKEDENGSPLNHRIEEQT
Experiment: AlphaScreen or HTRF

Substance: CAVIN3 HR1 domain, LTE cell-free expressed (human) (domain or fragment)
- binding: binds

Substance: CAVIN1 HR1 domain, LTE cell-free expressed (human) (domain or fragment)
- binding: binds

These are yes or no findings as the source states them, for the method shown. Binding can be weak; no strength is given. Tags and fused reporters may be left off the sequences shown.
